Measurements from patent US8901118B2, “Compounds and methods for kinase modulation, and indications therefor” (Plexxikon Inc., priority 2010, dated 2014).
Some of these results come from one statement about several compounds together.

Tested on: Osteoclast precursor cells
Assay: Osteoclast differentiation assay (acid phosphatase readout)
Format: cell-based

## CCc1ccc(Nc2ccc(C(=O)c3c[nH]c4ncnc(NC5CCOCC5)c34)c(F)n2)cn1 [Compound P-4116, [6-[(6-ethyl-3-pyridyl)amino]-2-fluoro-3-pyridyl]-[4-(tetrahydropyran-4-ylamino)-7H-pyrrolo[2,3-d]pyrimidin-5-yl]methanone]
  activity in the osteoclast differentiation assay: showed activity

## CCc1ccc(Nc2ccc(C(=O)c3c[nH]c4ncnc(Nc5ccc(C)nc5)c34)c(F)n2)cn1 [Compound P-4086, [6-[(6-ethyl-3-pyridyl)amino]-2-fluoro-3-pyridyl]-[4-[(6-methyl-3-pyridyl)amino]-7H-pyrrolo[2,3-d]pyrimidin-5-yl]methanone]
  activity in the osteoclast differentiation assay: showed activity

## CCc1ccc(Nc2ccc(C(=O)c3c[nH]c4ncnc(NC5CCCC5)c34)c(F)n2)cn1 [Compound P-4099, [4-(cyclopentylamino)-7H-pyrrolo[2,3-d]pyrimidin-5-yl]-[6-[(6-ethyl-3-pyridyl)amino]-2-fluoro-3-pyridyl]methanone]
  activity in the osteoclast differentiation assay: showed activity

## CCOc1ccc(Nc2ccc(Cc3c[nH]c4ncnc(C)c34)c(F)n2)cn1 [Compound P-4006, (6-Ethoxy-pyridin-3-yl)-[6-fluoro-5-(4-methyl-7H-pyrrolo[2,3-d]pyrimidin-5-ylmethyl)-pyridin-2-yl]-amine]
  activity in the osteoclast differentiation assay: showed activity

## CCOc1ccc(Nc2ccc(Cc3c[nH]c4ncnc(OC)c34)c(F)n2)cn1 [Compound P-4005, (6-Ethoxy-pyridin-3-yl)-[6-fluoro-5-(4-methoxy-7H-pyrrolo[2,3-d]pyrimidin-5-ylmethyl)-pyridin-2-yl]-amine]
  activity in the osteoclast differentiation assay: showed activity

## CC(C)Nc1ncnc2[nH]cc(C(=O)c3ccc(NC4CCCCC4)nc3Cl)c12 [Compound P-4109, [2-chloro-6-(cyclohexylamino)-3-pyridyl]-[4-(isopropylamino)-7H-pyrrolo[2,3-d]pyrimidin-5-yl]methanone]
  activity in the osteoclast differentiation assay: showed activity

## CCNc1ncnc2[nH]cc(C(=O)c3ccc(NC4CCC(F)(F)CC4)nc3Cl)c12 [Compound P-4050, [2-chloro-6-[(4,4-difluorocyclohexyl)amino]-3-pyridyl]-[4-(ethylamino)-7H-pyrrolo[2,3-d]pyrimidin-5-yl]methanone]
  activity in the osteoclast differentiation assay: showed activity

## CCCCNc1ncnc2[nH]cc(C(=O)c3ccc(Nc4ccc(CC)nc4)nc3F)c12 [Compound P-4100, [4-(butylamino)-7H-pyrrolo[2,3-d]pyrimidin-5-yl]-[6-[(6-ethyl-3-pyridyl)amino]-2-fluoro-3-pyridyl]methanone]
  activity in the osteoclast differentiation assay: showed activity

## COc1ccc(Nc2ccc(C(=O)c3c[nH]c4ncnc(NCC5CCCO5)c34)c(F)n2)cn1 (stereo not shown) [Compound P-4073, [2-fluoro-6-[(6-methoxy-3-pyridyl)amino]-3-pyridyl]-[4-(tetrahydrofuran-2-ylmethylamino)-7H-pyrrolo[2,3-d]pyrimidin-5-yl]methanone]
  activity in the osteoclast differentiation assay: showed activity

## O=C(c1ccc(Nc2ccc(C3CC3)nc2)nc1F)c1c[nH]c2ncnc(C3CC3)c12 [Compound P-4040, [6-(6-Cyclopropyl-pyridin-3-ylamino)-2-fluoro-pyridin-3-yl]-(4-cyclopropyl-7H-pyrrolo[2,3-d]pyrimidin-5-yl)-methanone]
  activity in the osteoclast differentiation assay: showed activity

## Cc1ccc(Nc2ccc(C(=O)c3c[nH]c4ncnc(NCC5CC5)c34)c(F)n2)cn1 [Compound P-4113, [4-(cyclopropylmethylamino)-7H-pyrrolo[2,3-d]pyrimidin-5-yl]-[2-fluoro-6-[(6-methyl-3-pyridyl)amino]-3-pyridyl]methanone]
  activity in the osteoclast differentiation assay: showed activity

## CCNc1ncnc2[nH]cc(C(=O)c3ccc(Nc4ccc(CC)nc4)nc3F)c12 [Compound P-4123, [4-(ethylamino)-7H-pyrrolo[2,3-d]pyrimidin-5-yl]-[6-[(6-ethyl-3-pyridyl)amino]-2-fluoro-3-pyridyl]methanone]
  activity in the osteoclast differentiation assay: showed activity

## CNc1ncnc2[nH]cc(C(=O)c3ccc(Nc4ccc(OC)nc4)nc3OC)c12 [Compound P-4085, [2-methoxy-6-[(6-methoxy-3-pyridyl)amino]-3-pyridyl]-[4-(methylamino)-7H-pyrrolo[2,3-d]pyrimidin-5-yl]methanone]
  activity in the osteoclast differentiation assay: showed activity

## CCOc1ncnc2[nH]cc(C(=O)c3ccc(Nc4ccc(OC)nc4)nc3F)c12 [Compound P-4025, (4-Ethoxy-7H-pyrrolo[2,3-d]pyrimidin-5-yl)-[2-fluoro-6-(6-methoxy-pyridin-3-ylamino)-pyridin-3-yl]-methanone]
  activity in the osteoclast differentiation assay: showed activity

## CCc1ccc(Nc2ccc(Cc3c[nH]c4ncnc(C)c34)c(F)n2)cn1 [Compound P-4009, (6-Ethyl-pyridin-3-yl)-[6-fluoro-5-(4-methyl-7H-pyrrolo[2,3-d]pyrimidin-5-ylmethyl)-pyridin-2-yl]-amine]
  activity in the osteoclast differentiation assay: showed activity

## COc1ccc(Nc2ccc(Cc3c[nH]c4ncc(C)cc34)c(F)n2)cn1 [Compound P-3019, [6-fluoro-5-(5-methyl-1H-pyrrolo[2,3-b]pyridin-3-ylmethyl)-pyridin-2-yl]-(6-methoxy-pyridin-3-yl)-amine]
  activity in the osteoclast differentiation assay: showed activity

## CCn1cc(Nc2ccc(Cc3c[nH]c4ncnc(C)c34)c(F)n2)cn1 [Compound P-4013, (1-Ethyl-1H-pyrazol-4-yl)-[6-fluoro-5-(4-methyl-7H-pyrrolo[2,3-d]pyrimidin-5-ylmethyl)-pyridin-2-yl]-amine]
  activity in the osteoclast differentiation assay: showed activity

## CCNc1ncnc2[nH]cc(C(=O)c3ccc(Nc4ccc(C5CC5)nc4)nc3F)c12 [Compound P-4060, [6-[(6-cyclopropyl-3-pyridyl)amino]-2-fluoro-3-pyridyl]-[4-(ethylamino)-7H-pyrrolo[2,3-d]pyrimidin-5-yl]methanone]
  activity in the osteoclast differentiation assay: showed activity

## CCOc1ncnc2[nH]cc(Cc3ccc(Nc4ccc(C)nc4)nc3F)c12 [Compound P-4017, [5-(4-Ethoxy-7H-pyrrolo[2,3-d]pyrimidin-5-ylmethyl)-6-fluoro-pyridin-2-yl]-(6-methyl-pyridin-3-yl)-amine]
  activity in the osteoclast differentiation assay: showed activity

## COc1ccc(Nc2ccc(Cc3c[nH]c4ncnc(C5CC5)c34)c(F)n2)cn1 [Compound P-4023, [5-(4-cyclopropyl-7H-pyrrolo[2,3-d]pyrimidin-5-ylmethyl)-6-fluoro-pyridin-2-yl]-(6-methoxy-pyridin-3-yl)-amine]
  activity in the osteoclast differentiation assay: showed activity

## COc1ccc(Nc2ccc(C(=O)c3c[nH]c4ncnc(NC5CCC(F)(F)CC5)c34)c(F)n2)cn1 [Compound P-4056, [4-[(4,4-difluorocyclohexyl)amino]-7H-pyrrolo[2,3-d]pyrimidin-5-yl]-[2-fluoro-6-[(6-methoxy-3-pyridyl)amino]-3-pyridyl]methanone]
  activity in the osteoclast differentiation assay: showed activity

## CCc1ccc(Nc2ccc(Cc3c[nH]c4ncnc(OC)c34)c(F)n2)cn1 [Compound P-4007, (6-Ethyl-pyridin-3-yl)-[6-fluoro-5-(4-methoxy-7H-pyrrolo[2,3-d]pyrimidin-5-ylmethyl)-pyridin-2-yl]-amine]
  activity in the osteoclast differentiation assay: showed activity

## COc1ccc(Nc2ccc(C(=O)c3c[nH]c4ncnc(C5CC5)c34)c(F)n2)cn1 [Compound P-4022, (4-cyclopropyl-7H-pyrrolo[2,3-d]pyrimidin-5-yl)-[2-fluoro-6-(6-methoxy-pyridin-3-ylamino)-pyridin-3-yl]-methanone]
  activity in the osteoclast differentiation assay: showed activity

## CNc1ncnc2[nH]cc(C(=O)c3cnc(NC4CCC(F)(F)CC4)c(F)c3)c12 [Compound P-4054, [6-[(4,4-difluorocyclohexyl)amino]-5-fluoro-3-pyridyl]-[4-(methylamino)-7H-pyrrolo[2,3-d]pyrimidin-5-yl]methanone]
  activity in the osteoclast differentiation assay: showed activity

## O=C(c1ccc(NC2CCC(F)(F)CC2)nc1Cl)c1c[nH]c2ncnc(NC3CC3)c12 [Compound P-4059, [2-chloro-6-[(4,4-difluorocyclohexyl)amino]-3-pyridyl]-[4-(cyclopropylamino)-7H-pyrrolo[2,3-d]pyrimidin-5-yl]methanone]
  activity in the osteoclast differentiation assay: showed activity

## COc1cncc(Nc2ccc(C(=O)c3c[nH]c4ncnc(NC5CCCCC5)c34)c(F)n2)c1 [Compound P-4104, [4-(cyclohexylamino)-7H-pyrrolo[2,3-d]pyrimidin-5-yl]-[2-fluoro-6-[(5-methoxy-3-pyridyl)amino]-3-pyridyl]methanone]
  activity in the osteoclast differentiation assay: showed activity

## CCc1ccc(Nc2ccc(C(=O)c3c[nH]c4ncnc(NCC(F)(F)F)c34)c(F)n2)cn1 [Compound P-4120, [6-[(6-ethyl-3-pyridyl)amino]-2-fluoro-3-pyridyl]-[4-(2,2,2-trifluoroethylamino)-7H-pyrrolo[2,3-d]pyrimidin-5-yl]methanone]
  activity in the osteoclast differentiation assay: showed activity

## Fc1nc(Nc2cnc3c(c2)CCC3)ccc1Cc1c[nH]c2ncnc(C3CC3)c12 [Compound P-4042, [5-(4-Cyclopropyl-7H-pyrrolo[2,3-d]pyrimidin-5-ylmethyl)-6-fluoro-pyridin-2-yl]-(6,7-dihydro-5H-[1]pyrindin-3-yl)-amine]
  activity in the osteoclast differentiation assay: showed activity

## COc1cncc(Nc2ccc(C(=O)c3c[nH]c4ncnc(NC5CC5)c34)c(F)n2)c1 [Compound P-4107, [4-(cyclopropylamino)-7H-pyrrolo[2,3-d]pyrimidin-5-yl]-[2-fluoro-6-[(5-methoxy-3-pyridyl)amino]-3-pyridyl]methanone]
  activity in the osteoclast differentiation assay: showed activity

## CCNc1ncnc2[nH]cc(C(=O)c3ccc(Nc4ccc(OC)nc4)nc3F)c12 [Compound P-4081, [4-(ethylamino)-7H-pyrrolo[2,3-d]pyrimidin-5-yl]-[2-fluoro-6-[(6-methoxy-3-pyridyl)amino]-3-pyridyl]methanone]
  activity in the osteoclast differentiation assay: showed activity

## CCCNc1ncnc2[nH]cc(C(=O)c3ccc(Nc4ccc(CC)nc4)nc3F)c12 [Compound P-4122, [6-[(6-ethyl-3-pyridyl)amino]-2-fluoro-3-pyridyl]-[4-(propylamino)-7H-pyrrolo[2,3-d]pyrimidin-5-yl]methanone]
  activity in the osteoclast differentiation assay: showed activity
